Reference: article PMC11024185
Changes are numbered by the printed parent chain. These are yes or no findings as the source states them, for the method shown. Binding seen in cells or lysates may run through a third protein. A yes stands for co-enrichment or nearness to the bait. Other partners may have been found. For some assays here: Sequences can lack the tags named with a protein. Blank lines part the entries; values can stand above or below the binder they belong to.

Legend:
[1] = molecular target: T1, Ssf1-3xFLAG-3C-2xProteinA (S. cerevisiae) (UniProt P38789); assay: affinity purification with mass spectrometry; split-tag purification of pre-60S particles from yeast overexpressing dbp10 R522V (β-estradiol, 1 h): IgG Sepharose on Ssf1-2xProteinA, 3C cleavage, then Strep-Tactin on Dbp10 R522V, bdNEDD8 protease elution; 50 mM Bis-Tris-Propane pH 8.0, 125 mM NaCl, 25 mM KCl, 10 mM MgCl2; Coomassie-stained 4-20% SDS-PAGE, bands named by molecular weight, ambiguous bands by mass spectrometry
T1 sequence: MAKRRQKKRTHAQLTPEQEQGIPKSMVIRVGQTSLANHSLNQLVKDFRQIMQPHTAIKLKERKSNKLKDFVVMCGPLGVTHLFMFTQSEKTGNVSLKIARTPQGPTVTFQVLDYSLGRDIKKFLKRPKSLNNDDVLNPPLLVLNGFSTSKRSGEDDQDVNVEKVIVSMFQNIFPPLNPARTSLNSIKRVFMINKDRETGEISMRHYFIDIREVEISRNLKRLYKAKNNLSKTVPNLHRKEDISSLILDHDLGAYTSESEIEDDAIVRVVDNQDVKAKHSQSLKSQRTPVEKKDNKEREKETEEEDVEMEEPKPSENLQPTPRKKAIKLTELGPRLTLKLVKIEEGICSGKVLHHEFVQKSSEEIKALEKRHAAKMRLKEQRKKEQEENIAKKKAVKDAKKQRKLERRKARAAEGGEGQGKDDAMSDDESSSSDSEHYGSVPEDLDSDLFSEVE

[2] = molecular target: T2, Dbp10 R522V (sfGFP-3xSTREP-bdNEDD8-MYC-dbp10 R522V) (S. cerevisiae) (UniProt Q12389); assay: as above
T2 sequence: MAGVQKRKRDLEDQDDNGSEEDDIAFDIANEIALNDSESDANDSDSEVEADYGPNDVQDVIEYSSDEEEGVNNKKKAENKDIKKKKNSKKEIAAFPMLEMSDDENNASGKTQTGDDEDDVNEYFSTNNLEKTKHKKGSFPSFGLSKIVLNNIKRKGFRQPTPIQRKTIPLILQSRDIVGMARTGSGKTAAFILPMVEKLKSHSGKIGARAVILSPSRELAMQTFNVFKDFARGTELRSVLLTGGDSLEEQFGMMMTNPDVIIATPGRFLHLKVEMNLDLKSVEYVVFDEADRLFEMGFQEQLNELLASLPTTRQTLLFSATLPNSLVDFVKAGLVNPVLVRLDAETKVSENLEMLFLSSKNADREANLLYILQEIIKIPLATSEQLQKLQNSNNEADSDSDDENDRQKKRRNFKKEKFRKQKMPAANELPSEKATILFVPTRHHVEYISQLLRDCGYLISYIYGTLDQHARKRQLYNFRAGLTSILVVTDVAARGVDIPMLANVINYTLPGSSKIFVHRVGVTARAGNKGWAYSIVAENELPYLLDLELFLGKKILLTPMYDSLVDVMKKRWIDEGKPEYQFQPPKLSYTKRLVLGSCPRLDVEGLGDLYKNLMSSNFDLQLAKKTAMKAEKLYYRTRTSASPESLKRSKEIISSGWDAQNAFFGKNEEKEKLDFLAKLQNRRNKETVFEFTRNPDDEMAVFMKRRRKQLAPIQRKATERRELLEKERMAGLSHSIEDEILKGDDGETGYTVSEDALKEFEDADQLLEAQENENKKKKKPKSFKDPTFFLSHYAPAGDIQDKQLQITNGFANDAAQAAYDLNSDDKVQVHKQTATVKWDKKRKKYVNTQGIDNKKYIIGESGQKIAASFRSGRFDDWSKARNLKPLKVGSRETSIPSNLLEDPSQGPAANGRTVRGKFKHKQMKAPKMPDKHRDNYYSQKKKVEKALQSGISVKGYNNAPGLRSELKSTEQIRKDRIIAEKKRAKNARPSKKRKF

[3] = molecular target: T1, Ssf1-3xFLAG-3C-2xProteinA (S. cerevisiae); assay: affinity purification with mass spectrometry; split-tag purification of pre-60S particles from steady state DBP10 yeast: IgG Sepharose on Ssf1-2xProteinA, 3C cleavage, then Strep-Tactin on 2xStrep-Dbp10, desthiobiotin elution; buffers with 50 µM ADP-BeF3; Coomassie-stained 4-20% SDS-PAGE, bands named by molecular weight, ambiguous bands by mass spectrometry
[4] = molecular target: T3, Dbp10 (2xStrep-bdNEDD8-DBP10) (S. cerevisiae) (UniProt Q12389); assay: as above
T3 sequence: T2 sequence with V522R

[5] = molecular target: T1, Ssf1-3xFLAG-3C-2xProteinA (S. cerevisiae); assay: affinity purification with mass spectrometry; purification of pre-60S intermediates from a drs1 R569Q strain by tags on Drs1 R569Q (3x-Strep) and Ssf1 (2x-ProtA); Coomassie-stained 4-20% SDS-PAGE
[6] = molecular target: T4, Drs1 R569Q (3x-Strep-Drs1 R569Q) (S. cerevisiae) (UniProt P32892); assay: as above
T4 sequence: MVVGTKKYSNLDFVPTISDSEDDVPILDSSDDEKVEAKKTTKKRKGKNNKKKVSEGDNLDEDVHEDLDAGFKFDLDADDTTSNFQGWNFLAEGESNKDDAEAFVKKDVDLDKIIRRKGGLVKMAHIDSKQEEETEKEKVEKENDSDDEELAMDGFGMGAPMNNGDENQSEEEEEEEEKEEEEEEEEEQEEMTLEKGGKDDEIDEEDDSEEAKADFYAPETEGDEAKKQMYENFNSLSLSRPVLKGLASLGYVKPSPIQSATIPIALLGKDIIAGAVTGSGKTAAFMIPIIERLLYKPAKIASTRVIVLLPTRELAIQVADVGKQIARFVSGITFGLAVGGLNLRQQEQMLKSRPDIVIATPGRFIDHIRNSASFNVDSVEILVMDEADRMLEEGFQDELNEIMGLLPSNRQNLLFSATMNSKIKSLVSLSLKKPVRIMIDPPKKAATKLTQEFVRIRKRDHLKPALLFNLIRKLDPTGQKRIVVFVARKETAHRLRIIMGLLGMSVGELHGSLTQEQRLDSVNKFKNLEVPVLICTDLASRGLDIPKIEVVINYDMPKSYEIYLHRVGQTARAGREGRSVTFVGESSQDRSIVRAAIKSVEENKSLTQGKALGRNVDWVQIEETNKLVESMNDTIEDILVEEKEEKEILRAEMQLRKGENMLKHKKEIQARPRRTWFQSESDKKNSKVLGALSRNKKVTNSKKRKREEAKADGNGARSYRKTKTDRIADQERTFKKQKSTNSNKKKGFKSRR

binding [1]: binds | binding [2]: binds
B1: Nsa1 ∆417-438 (protein, UniProt P53136)
chain: MRLLVSCVDSGSIKEVLCNIGTDTSVQSALQPFHVAPHLAEGLKAYVDRMWVISEDEAILARNSGVVELVKISKHLKENEALQVDPKGESKNEKSLSDDLPKFDISEFEITSSVSDLFDDAKLESLSSKSVKRTKLVDGFVTLCPIKKDSSNNTFVAATKSGLLHIIKKGEDKKLIKLASLGLKAPVEFLQLYDLEDTDTDKYIFAYGGEENLIKLVEIDSSFQSLKQIWEAKNVKNDRLDMRVPVWPMALRFLEPSPGKTEKGKLNYQFAAITRWSHLTKYSTQHGRKPFAQIDLLPNREPLSQMEVFDAKGENVVSSLGNFQSETFNELNVITTDYKKNVFKFDGNGRMLGKVGRDDITGSSTYIHVHDGKYLLQGGLDRYVRIFDIKTNKMLVKVYVGSRINFIVMLDDVEIEEDADELWNKLEGKVAASKASKKSKI

binding [3]: binds | binding [4]: binds | binding [5]: binds | binding [6]: binds
B2: Nsa1 (protein, UniProt P53136 1-463)
chain: MRLLVSCVDSGSIKEVLCNIGTDTSVQSALQPFHVAPHLAEGLKAYVDRMWVISEDEAILARNSGVVELVKISKHLKENEALQVDPKGESKNEKSLSDDLPKFDISEFEITSSVSDLFDDAKLESLSSKSVKRTKLVDGFVTLCPIKKDSSNNTFVAATKSGLLHIIKKGEDKKLIKLASLGLKAPVEFLQLYDLEDTDTDKYIFAYGGEENLIKLVEIDSSFQSLKQIWEAKNVKNDRLDMRVPVWPMALRFLEPSPGKTEKGKLNYQFAAITRWSHLTKYSTQHGRKPFAQIDLLPNREPLSQMEVFDAKGENVVSSLGNFQSETFNELNVITTDYKKNVFKFDGNGRMLGKVGRDDITGSSTYIHVHDGKYLLQGGLDRYVRIFDIKTNKMLVKVYVGSRINFIVMLDDVEIEMPLSPSAKAAKGKQKRKVTELEEDADELWNKLEGKVAASKASKKSKI

binding [3]: binds | binding [1]: binds
B3: Drs1 (enzyme, UniProt P32892 1-752)
chain: T4 sequence with Q569R
